# Primary screen of a compound library

The chains behind the UniProt entries cited, without tags or fusion partners.
UniProt P9WNZ1, whole entry: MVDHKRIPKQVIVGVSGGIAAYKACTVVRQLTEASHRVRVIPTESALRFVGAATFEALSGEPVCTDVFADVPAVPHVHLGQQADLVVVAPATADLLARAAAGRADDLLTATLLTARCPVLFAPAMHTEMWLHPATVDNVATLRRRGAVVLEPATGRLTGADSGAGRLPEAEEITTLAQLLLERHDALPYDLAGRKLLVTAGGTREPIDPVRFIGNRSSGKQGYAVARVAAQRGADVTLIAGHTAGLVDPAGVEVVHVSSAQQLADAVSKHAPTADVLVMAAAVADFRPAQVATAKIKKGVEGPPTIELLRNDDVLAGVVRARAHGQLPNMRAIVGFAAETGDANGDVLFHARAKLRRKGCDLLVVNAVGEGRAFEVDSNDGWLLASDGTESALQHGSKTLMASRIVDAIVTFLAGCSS

Data taken from ChEMBL document CHEMBL3988442, “University of Dundee, Small-Polar-MMV Screening Library” (2021).

Each number is a percent effect as filed.
The controls that fix the scale are not given in the record; negative values are as filed.
This is an unselected part of the compounds tested.

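Enzyme assay of CoaBC with a phosphate dye (Biomol Green) read at 650 nm. Target: Coenzyme A biosynthesis protein CoaBC, Mycobacterium tuberculosis (UniProt P9WNZ1). Compounds at 30 µM. Higher reads as stronger inhibition, judged from the few compounds that gave an IC50. Most strong results did not repeat in a second test. Size under these conditions: about 67,000 compounds, about 40 of them at 50% or above in at least one test.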

compound,effect
CC(C1CCN(Cc2c(Cl)ccc(O)c2Cl)CC1)N1CCN(C)CC1 (stereo not shown),-36.75
CN(C)C[C@@H]1CN(C(=O)c2cc(S(N)(=O)=O)ccc2F)C[C@@H]1CO,-0.2198
COCC(O)CN(C)C(=O)c1cccc(-c2csc(C)n2)c1 (stereo not shown),1.499
O=C(CN1CCS(=O)(=O)CC1)NCc1cccc(Br)c1,3.571
c1cc(-c2n[nH]c(CNc3nnc(C4CC4)o3)n2)ccn1,-3.836
Cc1cc(C)n(CC2CCCN2C(=O)c2ccc3c(c2)nnn3C)n1 (stereo not shown),0.6397
O=C(CN1CCOc2ccccc2C1)NCc1cc2n(n1)CCNC2,4.911
CCOCCn1c(=O)[nH]c2cc(C(=O)N(C)Cc3nc(C)cs3)ccc21,-7.889
Cn1ccnc1CN1CC[C@H]2CO[C@H](CNc3ncccn3)[C@H]2C1,0.1233
COCCCN(C(=O)c1ccc(-n2ccnc2)cc1)C1CCN(C)CC1,-0.7353
Cc1cc(C(C)(O)CNC(=O)C2(C)CCCC2)c(C)o1 (stereo not shown),1.499
CS(=O)(=O)c1cccc(C(N)c2ccc(Cl)cc2)c1 (stereo not shown),7.5
C[C@@H]1CC[C@@H](C)N1C(=O)c1cc(COc2ccccc2)[nH]n1,0.9877
CCN1C(=O)CC(N(C)Cc2nc3ccccc3c(=O)[nH]2)C1=O (stereo not shown),5.976
CN(CC(=O)N1CCCN(Cc2cscn2)CC1)c1cnccn1,1.318
CN(C)C(=O)[C@@H]1C[C@@H]2[C@@H](CCN2Cc2nccs2)O1,5.882
NC(=O)C(CNC(=O)Cc1ccsc1)Cc1ccc(F)cc1 (stereo not shown),1.083
COc1ccc(C2CCN(S(=O)(=O)CCCC#N)CC2)cc1,0.7299
CN1CCOC(CNCc2csc(C3CCCC3)n2)C1 (stereo not shown),-2.389
O=C(Cc1ccsc1)N1CCc2ncc(Cn3cccn3)n2CC1,-0.25
Cc1nnc(C(NS(=O)(=O)c2cc(C#N)ccc2C)C(C)C)[nH]1 (stereo not shown),4.669
O=C1CC(N(C(=O)c2ccccc2Br)C2CC2)C(=O)N1 (stereo not shown),6.962
Cn1ncc(C(=O)O)c1C(=O)Nc1nc2ccccc2s1,2.184
COc1cccc(C(=O)N2CCCC(CNS(C)(=O)=O)C2)c1 (stereo not shown),9.197
COCC1c2c(cnn2C)CCN1C(=O)c1ccc2c(c1)OCO2 (stereo not shown),13.32
Cc1cc(C)c(CNC(=O)N2CCNC(=O)C2)c(=O)[nH]1,1.956
CCOc1ccc(Cl)cc1CCNC(=O)Cn1nc(C)ccc1=O,2.642
Cc1nc(C(C)(C)C)sc1C(=O)NCCNc1ncccn1,-1.695
COCC1CCN(CCCc2cccc(OC)c2)CC1,-2.539
COCCN1CCN(Cc2c(C3CCNCC3)[nH]c3ncccc23)CC1,0
Cc1ccc(F)c(C(=O)N2CCN(S(C)(=O)=O)[C@@H](C)C2)c1,-5.33
O=C(c1c[nH]c(=O)[nH]c1=O)N1CCCC(c2cnccn2)C1 (stereo not shown),-0.7282
Cc1nn(C)c(C)c1C1CCCN1CC(=O)Nc1ccc(Cl)cn1 (stereo not shown),0.5821
Cc1noc(CNc2c(N3CCCC3)cccc2N2CCCC2)n1,-12.4
O=C(NC1CCC1)[C@H]1C[C@@H]2CN(C(=O)Nc3ccc(F)cc3)C[C@H]1O2,6.516
Cc1ccc(NC(=O)N2CCOC(C)(c3cnn(C)c3)C2)c(C)c1 (stereo not shown),-3.478
CC(C)NC(=O)CN1CCCNCC1,-18.49
c1cncc(CN2CCCC(Nc3ncnc4c3CCNCC4)C2)c1 (stereo not shown),3.831
CCC(CO)N(Cc1cccc(-n2cccn2)c1)Cc1cccs1 (stereo not shown),0.2141
Cc1nccn1-c1ccc(N2CCC(NC(C)CC(C)C)CC2)cc1 (stereo not shown),0.2571
O=C(c1ccccc1)N1CC[C@H]2C[C@H](c3nccs3)O[C@@H]2C1,4.511
OC1CCN(Cc2c(C3CCCNC3)[nH]c3ncccc23)CC1 (stereo not shown),-2.222
CC1(C)CN(C(=O)CC2CCS(=O)(=O)CC2)C[C@]1(C)O,4.545
COc1ccc(-c2n[nH]cc2CN(C)CCCN2CCOCC2)c(F)c1,2.609
CC(C)N(C)Cc1cncc2c1CCN(CC(=O)N(C)C)C2,0.3713
CN1C(=O)C2(CCN(c3ncccc3C(=O)O)CC2)c2ccccc21,13.59
Cc1nc(CNC(=O)Nc2cc(F)ccc2OC(F)F)no1,2.915
O=C(c1ncn2c1CNS(=O)(=O)c1ccccc1-2)N1CC=CC1,-5.417
CC(CCc1ccccc1)NC(=O)CNCCCN1CCOCC1 (stereo not shown),-2.008
c1coc(-c2noc(CN3CCc4c(ncn4C4CC4)C3)n2)c1,6.159
CCc1noc(CN(C)Cc2ccc(N3CCCCC3)cc2)n1,1.364
Cc1cc(CN(Cc2ccccc2)CC(O)c2cccs2)on1 (stereo not shown),0.5917
c1ccc(-n2cncn2)c(CNCCn2cccn2)c1,-3.481
CC(=O)NCC1CCN(C(=O)NCCc2ccc3c(c2)OCO3)CC1,8.415
CC(C(=O)N1CCN(CCOc2ccccc2)CC1)n1cc(Cl)cn1 (stereo not shown),9.879
CC(CNC(=O)c1cccnc1)Oc1ccc(F)cc1 (stereo not shown),0.5741
O=C(O)[C@@H]1OCC(=O)N(Cc2cccc(Cl)c2)[C@@H]1c1ccccc1,0.7282
COc1ccccc1C(C)CC(=O)N1CCCS1(=O)=O (stereo not shown),0.4914
c1nc(N2CCCC(Cn3cncn3)C2)c2sccc2n1 (stereo not shown),7.329
CCc1nnc(CN2CCc3cnc(C)nc3C2)o1,8.095
O=S(=O)(CC1CCCCO1)Nc1cnn(Cc2ccccc2)c1 (stereo not shown),4.28
O=C([C@H]1CN(Cc2ccncc2)C[C@H]2OCC[C@@H]12)N1CCCCO1,4.194
Cc1c(-c2cnn(C)c2)nc(N)c(C#N)c1-c1ccc(CO)o1,-2.336
COCC1CN(C(=O)Cc2cccs2)Cc2nnn(C)c21 (stereo not shown),4.261
O=C([C@@H]1CC[C@@H]2[C@@H](CCN2CCOCc2ccccc2)O1)N1CCCC1,0.9852
CC(=O)Nc1cccc(OCCNC(=O)N(C)Cc2ccccc2)c1,0.8264
CCOc1cc(C(=O)N2CCCC(c3nc(C)c(C)s3)C2)ccn1 (stereo not shown),4.725
CCOc1ccc(Cl)cc1C(C(=O)O)N1CCOCC1 (stereo not shown),-4.604
CCOC(=O)C1CCN(c2nccc(-n3nc(C)cc3C)n2)CC1,-1.928
COC1CCN(c2ccc(F)cc2CN(C)C(=O)c2cc[nH]n2)CC1,-4.084
COCCN1C(=O)CC[C@@H]2[C@H]1CCN2C(=O)N(C)C,12.91
Cc1csc(N2CCN(Cc3nccn3C)CC2C)n1 (stereo not shown),-1.139
CC(C)C(CNCc1cccc2c1OCO2)N1CCOCC1 (stereo not shown),-2.525
c1ccc(-c2cc(CC3(NCc4ncc[nH]4)COC3)no2)cc1,7.285
CC(CNC(=O)C1(c2ccc(F)cc2)CC1)CN1CCCC1=O (stereo not shown),8.961
CNC(=O)c1ccc(C2CN(CC(=O)N(C)C)CCO2)nc1 (stereo not shown),1.104
COCC[C@]1(O)CCN(Cc2nnc(C)s2)C[C@H]1C,1.459
CCc1cc(NCCCc2nc(C)no2)nc(-c2ccncc2)n1,5.478

The last 4 entries again:

compound,effect
CC(CNC(=O)C1(c2ccc(F)cc2)CC1)CN1CCCC1=O (stereo not shown),8.961
CNC(=O)c1ccc(C2CN(CC(=O)N(C)C)CCO2)nc1 (stereo not shown),1.104
COCC[C@]1(O)CCN(Cc2nnc(C)s2)C[C@H]1C,1.459
CCc1cc(NCCCc2nc(C)no2)nc(-c2ccncc2)n1,5.478